Source: publication PMC6372799
These are yes or no findings as the source states them, for the method shown. In cells and extracts the contact can be indirect. Some results given as binding are weak or reduced against the parent protein; the word gives no strength.

Amino acid sequences for entries named in this document (tags omitted).
UniProt Q9UBF8: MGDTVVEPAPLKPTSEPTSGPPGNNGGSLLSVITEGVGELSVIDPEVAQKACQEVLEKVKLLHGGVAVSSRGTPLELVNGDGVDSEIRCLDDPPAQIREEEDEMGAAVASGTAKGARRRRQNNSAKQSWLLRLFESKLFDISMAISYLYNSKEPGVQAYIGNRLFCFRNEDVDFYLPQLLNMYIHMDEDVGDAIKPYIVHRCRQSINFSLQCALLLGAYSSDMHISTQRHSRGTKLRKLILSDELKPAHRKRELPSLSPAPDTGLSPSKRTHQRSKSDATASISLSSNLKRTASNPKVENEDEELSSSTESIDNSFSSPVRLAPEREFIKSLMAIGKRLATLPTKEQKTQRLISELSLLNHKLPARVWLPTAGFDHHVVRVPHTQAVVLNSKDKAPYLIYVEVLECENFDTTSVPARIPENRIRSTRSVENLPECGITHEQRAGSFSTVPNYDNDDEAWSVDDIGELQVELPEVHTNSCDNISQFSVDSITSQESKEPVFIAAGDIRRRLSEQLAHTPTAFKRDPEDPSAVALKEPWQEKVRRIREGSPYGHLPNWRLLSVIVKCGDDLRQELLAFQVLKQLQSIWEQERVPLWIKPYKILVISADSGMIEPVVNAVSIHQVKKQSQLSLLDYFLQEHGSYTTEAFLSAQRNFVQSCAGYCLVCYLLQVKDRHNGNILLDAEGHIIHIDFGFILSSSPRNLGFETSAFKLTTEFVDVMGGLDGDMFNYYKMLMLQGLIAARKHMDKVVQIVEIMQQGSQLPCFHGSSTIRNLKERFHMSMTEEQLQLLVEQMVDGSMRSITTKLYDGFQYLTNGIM
UniProt Q9H3P7: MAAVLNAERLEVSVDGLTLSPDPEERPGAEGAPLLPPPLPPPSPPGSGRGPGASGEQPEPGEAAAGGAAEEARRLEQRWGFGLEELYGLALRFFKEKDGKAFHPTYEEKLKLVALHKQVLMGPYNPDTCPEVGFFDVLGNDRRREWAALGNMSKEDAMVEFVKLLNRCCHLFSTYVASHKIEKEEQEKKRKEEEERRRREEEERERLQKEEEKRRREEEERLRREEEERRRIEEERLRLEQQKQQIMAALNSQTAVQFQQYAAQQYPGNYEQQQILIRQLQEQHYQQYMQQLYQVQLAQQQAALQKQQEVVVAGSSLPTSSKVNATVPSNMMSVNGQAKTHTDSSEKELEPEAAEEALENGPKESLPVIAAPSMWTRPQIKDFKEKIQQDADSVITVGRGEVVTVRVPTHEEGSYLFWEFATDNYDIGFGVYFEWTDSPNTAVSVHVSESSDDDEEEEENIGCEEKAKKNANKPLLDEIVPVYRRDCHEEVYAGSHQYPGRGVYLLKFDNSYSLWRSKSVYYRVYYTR

Target: phosphatidylinositol 4-kinase IIIβ (PI4KB), wild type (UniProt Q9UBF8)
Test: co-IP; coimmunoprecipitation from cells (Fig. S7); antibodies, bait, cell line and buffer are in Text S1, not shown

acyl-coenzyme A binding domain containing 3 (ACBD3), wild type (from UniProt Q9H3P7 1-528)
binding: binds
